We go through 4 molecules from article PMC6445166, “Subnanomolar indazole-5-carboxamide inhibitors of monoamine oxidase B (MAO-B) continued: indications of iron binding, experimental evidence for optimised solubility and brain penetration” (Journal of Enzyme Inhibition and Medicinal Chemistry, 2017).

“Also recorded” adds a separate entry of the source.

Data set [1] can be described thus: Metal binding studies (UV-visible), Fe2+. It is filed as physicochemical. The following applies: compound 50 μM in 50% DMSO, FeSO4 added.
The nature of data set [2]: Metal binding studies (UV-visible), Fe3+. It is filed as physicochemical. The settings on record: compound 50 μM in 50% DMSO, FeCl3 added.

Regarding `Cc1c(O)c(=O)ccn1C` [DFP, Deferiprone, reference compound], the “ability to bind Fe^2+ (UV–visible absorbance change on FeSO4 addition)” value in data set [1] is “significantly changed”. Besides, the “ability to bind Fe^3+ (UV–visible absorbance change on FeCl3 addition)” value in data set [2] was “higher chelating affinity”.
`O=C(Nc1ccc(Cl)c(Cl)c1)c1ccc2[nH]ncc2c1` [NTZ-1006]: the “ability to bind Fe^2+ (UV–visible absorbance change on FeSO4 addition)” value in data set [1] is reported as “slight increase of the maximum absorbance; also recorded: selectively bind Fe^2+ ions”. In addition, the “ability to bind Fe^3+ (UV–visible absorbance change on FeCl3 addition)” value in data set [2] was “not modified”.
With `O=C(Nc1ccc(F)c(Cl)c1)c1ccc2[nH]ncc2c1` [NTZ-1032], the “ability to bind Fe^2+ (UV–visible absorbance change on FeSO4 addition)” value in data set [1] was “slight increase of the maximum absorbance; also recorded: selectively bind Fe^2+ ions”. In data set [2], the “ability to bind Fe^3+ (UV–visible absorbance change on FeCl3 addition)” value is listed as “not modified”.
The matching figures for `Cn1ncc2cc(C(=O)Nc3ccc(F)c(Cl)c3)ccc21` [NTZ-1441]: “did not have the ability to bind iron cations” and “did not have the ability to bind iron cations”.
